From US4202891A, “15-Oxygenated sterol compounds and the use of such compounds to inhibit the biosynthesis of sterols” (priority 1977, dated 1980)

Test system: serum sterols other than cholesterol
Experiment: Gas-liquid chromatographic analysis of serum sterols of treated rats
Type: in vivo, rat (male, Sprague-Dawley)
Conditions: 5 mg s.c. once a day; after 12 days; no detectable accumulation

Compound | accumulation of sterols other than cholesterol in serum
CCCCCCCCCCCCCCCC(=O)O[C@H]1CC[C@@]2(C)[C@@H](CCC3=C4C(=O)C[C@H]([C@H](C)CCCC(C)C)[C@@]4(C)CC[C@@H]32)C1 [3β-hexadecanoyloxy-5α-cholest-8(14)-en-15-one] | < 1%
CC(C)CCC[C@@H](C)[C@H]1CC(=O)C2=C3CC[C@H]4C[C@@H](OC(=O)CCC(=O)O)CC[C@]4(C)[C@H]3CC[C@@]21C [3β-hemisuccinoyloxy-5α-cholest-8(14)-en-15-one] | < 1%
